# Assay results from PubChem BioAssay AID651640 (Broad Institute, 2012).
# Out of some 350,000 compounds screened, about 6,000 (1.7%) were called active. This list was built around the results that the source calls inconclusive (neither active nor inactive); the mix of calls is not that of the screen. Rule as the data show it: active = CPE inhibition above about 20% (passing the limit was not always enough); inconclusive = no clear call, values can overlap the other calls; tested in BHK-21 cells.
# Test: protection of cells from dengue 2 killing – plate reader, single concentration, primary screen (AID 651640);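 also: 0% = median of neutral control wells and 100% = median of positive control wells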
# Details: DENV2-infected cells, cytopathic effect rescue, at 9.99 µM, stronger effect = higher value
row,SMILES,CPE inhibition
1,CCOC(=O)[C@]12CCC=C1N(CCC1=CCCCC1)C(=O)[C@H](CC(=O)N1CCN(C(=O)C3CC3)CC1)C2,inconclusive: 70.8%
2,O=C(Cc1ccccc1[N+](=O)[O-])NNC(=O)c1cccs1,inconclusive: 40.6%
3,CO[C@H]1CN(C)C(=O)c2ccc(NC(=O)c3cc(C)on3)cc2OC[C@@H](C)N(C)C[C@@H]1C,active: 20.9%
4,COCC(=O)Nc1ccc2c(c1)[C@H]1C[C@@H](CC(=O)N(C)C)O[C@@H](CO)[C@H]1O2,inconclusive: 24.3%
5,Cc1cccc(NC2=NC(=S)N(c3cccc(C(=O)O)c3)C23CCCCC3)c1,inconclusive: 20.5%
6,NC(=O)NC(CC(=O)NNC(=O)c1cccs1)c1ccc(Cl)cc1 (stereo unspecified),inactive: 1.3%
7,COC(=O)C[C@H]1CC[C@H]2[C@H](COc3ccc(NC(=O)c4ccc(C(F)(F)F)cc4)cc3C(=O)N2C)O1,inconclusive: 71.5%
8,C[C@H]1CCCCO[C@H](CN(C)C(=O)Nc2ccccc2)[C@@H](C)CN([C@@H](C)CO)C(=O)c2cc(NC(=O)Nc3ccc(C(F)(F)F)cc3)ccc2O1,active: 59.8%
9,CC(=O)NC[C@H]1[C@@H](c2ccc(C3=CCCC3)cc2)[C@@H](CO)N1C(=O)NC(C)C,inconclusive: 1.68%
10,COC(=O)c1ccc2nc(C3CCCCC3)c(Cc3ccccc3OC)n2c1,active: 20.3%
11,CCCN1C[C@H](C)[C@@H](OC)CN(C)C(=O)c2cc(NC(=O)c3ccc(F)cc3)ccc2OC[C@H]1C,active: 47.3%
12,COc1cccc(COC(=O)CSCC(=O)Nc2ccc(C)cc2)c1OC,active: 71.6%
13,Cc1cccc(C)c1OCCOC(=O)c1cccc(S(=O)(=O)N2CCOCC2)c1,inconclusive: 22.2%
14,C[C@H](CO)N1C[C@H](C)[C@H](CN(C)C(=O)Nc2ccccc2)Oc2ccc(N(C)C)cc2C1=O,inactive: 6.88%
15,O=c1onc(-c2ccc(Cl)cc2)n1Cc1ccc(F)cc1,inconclusive: 74.4%
16,COCC(=O)N1C[C@@H](C)[C@@H](OC)CN(C)C(=O)c2cc(NC(=O)NC(C)C)ccc2OC[C@H]1C,inconclusive: 25.5%
17,O=C(Nc1cc(S(=O)(=O)N2CCCCC2)ccc1Cl)c1ccncc1,inconclusive: 62.8%
18,Cc1cc(=O)[nH]c(SCC(=O)NC2CCCCCC2)n1,inactive: -0.131%
19,Cc1noc(C)c1NC(=O)N(C)C[C@H]1Oc2c(NS(=O)(=O)c3ccccc3)cccc2C(=O)N([C@@H](C)CO)C[C@@H]1C,inactive: 3.79%
20,CC(=O)N1[C@@H]2c3ccc(-c4cccc(F)c4)c(=O)n3C[C@@H]2[C@@H](CO)[C@@H]1C(=O)NCCCN(C)C,inactive: 9.89%
21,Cc1ccccc1S(=O)(=O)N1CCCCN2[C@H](CO)[C@H](c3ccc(-c4cncnc4)cc3)[C@@H]2C1,active: 36.1%
22,COc1ccc(C#Cc2ccc([C@H]3[C@@H](CO)N4CCCCN(C(=O)Nc5ccc(F)cc5)C[C@@H]34)cc2)cc1,active: 30%
23,C[C@@H]1CN([C@@H](C)CO)C(=O)c2cccc(NS(C)(=O)=O)c2O[C@@H]1CN(C)Cc1ccc2c(c1)OCO2,inconclusive: 22.6%

row,SMILES,CPE inhibition
1,O=C(Cc1ccncc1)N[C@H]1CC[C@@H](CCn2cc(-c3ccccc3F)nn2)O[C@H]1CO,inactive: -0.746%
2,O=C(N[C@H]1CC[C@@H](CCn2cc(Cc3ccccc3)nn2)O[C@@H]1CO)c1ccccn1,inactive: 12.5%
3,C[C@H](CO)N1C[C@H](C)[C@H](CN(C)C)Oc2c(NC(=O)C3CCOCC3)cccc2C1=O,inconclusive: 28.8%
4,COc1cc(C(=O)OCC(=O)Nc2sccc2C(N)=O)cc(OC)c1OC,inconclusive: 27.6%
5,CC(C)(C)OC(=O)N(CCc1ccccc1)Cc1ccccc1OCc1cccc(NC(=O)C2CCCC2)c1,inactive: -14%
6,Cc1c(C(=O)N2CCCCC2)c(S(=O)(=O)Nc2ccc(F)cc2F)c(C)n1C,inconclusive: 37.4%
7,Cc1ccc2ccccc2c1C(O)c1ncc(-c2ccccc2F)[nH]1 (stereo unspecified),inconclusive: 23.7%
8,CN1C(=O)c2cc(NC(=O)c3ccc(F)c(F)c3)ccc2OC[C@H]2O[C@@H](CC(=O)N3CCOCC3)CC[C@H]21,inactive: -3.58%
9,C[C@H](CO)N1C[C@H](C)[C@@H](CN(C)Cc2cccc(F)c2)Oc2cc(-c3ccccc3)ccc2S1(=O)=O,inconclusive: 26.9%
10,CCN(CC)S(=O)(=O)c1ccc(F)c(C(=O)OC2CC(C)OC2=O)c1 (stereo unspecified),inconclusive: 35.6%
11,COCC#Cc1ccc2c(c1)O[C@H](CN(C)Cc1ccccc1)[C@@H](C)CN([C@H](C)CO)S2(=O)=O,active: 28.2%
12,CC1COC(C)(CC(=O)NN2C(=O)c3ccccc3C2=O)O1 (stereo unspecified),inconclusive: 24%
13,C[C@H]1CN([C@@H](C)CO)C(=O)c2ccccc2-c2ccccc2CO[C@H]1CN(C)Cc1ccc(F)cc1,inactive: 0.205%
14,O=C(CSc1nnc(-c2ccccc2F)n1C1CCCCC1)Nc1cc(C(=O)O)ccc1Cl,inconclusive: 31.3%
15,CCS(=O)(=O)NCC[C@@H]1CC[C@@H](NC(=O)C2CC2)[C@@H](CO)O1,active: 46.2%
16,N#Cc1ccc(-c2ccc(C3[C@@H]4CN(C(=O)Cc5ccccc5)C[C@H]3N4)cc2)cc1 (stereo partly specified),inconclusive: 28%
17,O=C1CCc2cc(S(=O)(=O)NCCc3ccc(Cl)cc3)cc3c2N1CC3,active: 96.9%
18,C[C@@H]1CN([C@H](C)CO)C(=O)c2cc(NC(=O)Nc3cccc4ccccc34)ccc2O[C@H]1CN(C)C(=O)NC1CCCCC1,inconclusive: 31.1%
19,COc1ccc2c3c(n(C)c2c1)[C@@H](CO)N(C(=O)CC1CC1)CC31CCN(C(=O)C2CCC2)CC1,inactive: 7.45%
20,COc1cc(-c2cnc3c(NC(C)=O)cc(-c4ccccc4CN(C)C)cn23)cc(OC)c1OC,active: 24.9%
21,Cn1cnc(S(=O)(=O)N[C@@H]2C=C[C@H](CC(=O)Nc3ccccc3)O[C@@H]2CO)c1,inconclusive: 51.9%
22,COc1ccc(C(=O)Cc2ccccc2C(=O)O)cc1,inactive: -0.679%
23,COCC#Cc1ccc2c(c1)O[C@H](CN(C)C(=O)Nc1ccc(OC)cc1)[C@H](C)CN([C@H](C)CO)S2(=O)=O,inconclusive: 54.2%

# Arranged by length of the SMILES (falling): three of the compounds above
row,SMILES,CPE inhibition
1,O=C(Cc1ccncc1)N[C@H]1CC[C@@H](CCn2cc(-c3ccccc3F)nn2)O[C@H]1CO,inactive: -0.746%
14,O=C(CSc1nnc(-c2ccccc2F)n1C1CCCCC1)Nc1cc(C(=O)O)ccc1Cl,inconclusive: 31.3%
6,Cc1c(C(=O)N2CCCCC2)c(S(=O)(=O)Nc2ccc(F)cc2F)c(C)n1C,inconclusive: 37.4%
